The supplement of paper PMC6411743
± gives the standard deviation of the averaged measurements. This is a selection; strong and weak results do not stand in their true shares. Most values lie at the level of the controls, where differences are scatter.

By UniProt entry, the sequences of proteins in these tests, tags left out. Where a name states a change or a piece, a line headed by the entry shows the natural chain unless it says otherwise.
UniProt Q15283: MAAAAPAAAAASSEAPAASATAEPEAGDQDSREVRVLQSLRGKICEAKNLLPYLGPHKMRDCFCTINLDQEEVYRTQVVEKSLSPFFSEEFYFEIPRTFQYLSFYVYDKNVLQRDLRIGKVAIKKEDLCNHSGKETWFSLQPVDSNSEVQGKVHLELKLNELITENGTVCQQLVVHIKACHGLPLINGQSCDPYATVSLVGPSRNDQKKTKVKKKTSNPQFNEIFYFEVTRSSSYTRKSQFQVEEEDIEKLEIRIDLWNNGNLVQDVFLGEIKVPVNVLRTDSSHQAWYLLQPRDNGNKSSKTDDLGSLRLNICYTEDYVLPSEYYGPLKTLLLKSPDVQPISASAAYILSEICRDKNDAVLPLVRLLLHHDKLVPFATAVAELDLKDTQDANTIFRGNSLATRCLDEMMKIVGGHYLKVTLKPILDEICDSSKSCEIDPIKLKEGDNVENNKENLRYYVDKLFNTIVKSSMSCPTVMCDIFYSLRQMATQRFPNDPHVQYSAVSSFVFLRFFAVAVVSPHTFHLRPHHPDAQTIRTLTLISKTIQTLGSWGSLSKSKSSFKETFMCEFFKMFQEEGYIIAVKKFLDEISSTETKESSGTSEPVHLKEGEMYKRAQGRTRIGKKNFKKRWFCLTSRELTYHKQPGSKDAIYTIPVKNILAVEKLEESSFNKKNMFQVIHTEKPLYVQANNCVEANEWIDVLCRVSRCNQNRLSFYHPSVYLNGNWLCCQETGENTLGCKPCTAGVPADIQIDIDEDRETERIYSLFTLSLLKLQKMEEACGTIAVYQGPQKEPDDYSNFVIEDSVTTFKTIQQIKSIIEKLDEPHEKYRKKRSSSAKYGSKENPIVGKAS
UniProt Q8NI36: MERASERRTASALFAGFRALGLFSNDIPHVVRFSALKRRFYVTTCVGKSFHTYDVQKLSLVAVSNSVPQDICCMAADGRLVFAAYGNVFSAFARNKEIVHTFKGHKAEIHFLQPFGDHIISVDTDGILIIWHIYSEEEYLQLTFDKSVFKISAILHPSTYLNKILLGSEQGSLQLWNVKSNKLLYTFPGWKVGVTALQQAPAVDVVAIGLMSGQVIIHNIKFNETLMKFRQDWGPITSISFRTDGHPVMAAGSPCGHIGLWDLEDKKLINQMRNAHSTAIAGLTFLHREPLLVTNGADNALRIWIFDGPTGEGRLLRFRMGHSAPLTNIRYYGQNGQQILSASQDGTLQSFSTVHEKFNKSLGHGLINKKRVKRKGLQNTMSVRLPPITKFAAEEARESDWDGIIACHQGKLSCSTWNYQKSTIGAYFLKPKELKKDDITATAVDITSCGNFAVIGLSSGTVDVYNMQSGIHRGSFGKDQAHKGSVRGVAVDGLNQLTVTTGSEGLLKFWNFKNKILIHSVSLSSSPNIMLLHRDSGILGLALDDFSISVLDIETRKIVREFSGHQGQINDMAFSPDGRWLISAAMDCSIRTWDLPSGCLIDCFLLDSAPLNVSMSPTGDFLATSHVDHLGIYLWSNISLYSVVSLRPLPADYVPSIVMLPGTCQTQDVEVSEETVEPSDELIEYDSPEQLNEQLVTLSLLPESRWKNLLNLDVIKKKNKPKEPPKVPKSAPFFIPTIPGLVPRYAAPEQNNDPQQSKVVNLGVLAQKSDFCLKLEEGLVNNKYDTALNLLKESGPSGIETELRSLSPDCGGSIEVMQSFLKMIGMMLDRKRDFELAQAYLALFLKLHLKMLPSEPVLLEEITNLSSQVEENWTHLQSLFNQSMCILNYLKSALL
UniProt Q9NP73: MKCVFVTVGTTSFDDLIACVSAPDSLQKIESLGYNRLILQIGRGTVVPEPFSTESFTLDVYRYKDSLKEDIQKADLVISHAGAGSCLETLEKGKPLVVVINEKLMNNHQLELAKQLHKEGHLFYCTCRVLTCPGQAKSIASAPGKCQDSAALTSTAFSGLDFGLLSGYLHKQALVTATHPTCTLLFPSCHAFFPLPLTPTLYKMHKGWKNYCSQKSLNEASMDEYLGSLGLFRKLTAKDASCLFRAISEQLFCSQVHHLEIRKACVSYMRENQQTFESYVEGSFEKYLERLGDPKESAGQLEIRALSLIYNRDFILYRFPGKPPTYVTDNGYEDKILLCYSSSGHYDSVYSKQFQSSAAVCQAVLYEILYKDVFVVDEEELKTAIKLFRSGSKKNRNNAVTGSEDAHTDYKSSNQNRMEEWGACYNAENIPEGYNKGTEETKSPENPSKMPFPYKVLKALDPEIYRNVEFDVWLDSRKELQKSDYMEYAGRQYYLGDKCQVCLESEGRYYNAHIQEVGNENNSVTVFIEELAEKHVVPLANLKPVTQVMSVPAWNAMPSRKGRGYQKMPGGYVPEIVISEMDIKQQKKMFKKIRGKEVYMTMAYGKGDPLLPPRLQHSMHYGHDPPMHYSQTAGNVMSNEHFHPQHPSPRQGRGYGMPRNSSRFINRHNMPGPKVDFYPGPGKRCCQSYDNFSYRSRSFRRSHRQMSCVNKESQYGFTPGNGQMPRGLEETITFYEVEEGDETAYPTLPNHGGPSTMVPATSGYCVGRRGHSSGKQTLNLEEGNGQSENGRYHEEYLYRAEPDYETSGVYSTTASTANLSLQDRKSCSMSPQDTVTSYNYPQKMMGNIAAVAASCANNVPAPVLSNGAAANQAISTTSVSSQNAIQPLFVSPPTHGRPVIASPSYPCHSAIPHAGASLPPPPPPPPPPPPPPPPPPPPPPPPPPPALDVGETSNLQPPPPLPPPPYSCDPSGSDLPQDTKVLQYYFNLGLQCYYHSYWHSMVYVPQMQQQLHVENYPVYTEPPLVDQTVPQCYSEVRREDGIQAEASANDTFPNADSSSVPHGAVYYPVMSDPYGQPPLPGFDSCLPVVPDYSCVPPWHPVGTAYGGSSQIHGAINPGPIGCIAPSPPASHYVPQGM
UniProt Q15651: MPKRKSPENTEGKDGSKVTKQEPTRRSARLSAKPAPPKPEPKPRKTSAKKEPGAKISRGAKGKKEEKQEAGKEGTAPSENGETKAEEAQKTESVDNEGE
UniProt Q7Z7C8, whole entry: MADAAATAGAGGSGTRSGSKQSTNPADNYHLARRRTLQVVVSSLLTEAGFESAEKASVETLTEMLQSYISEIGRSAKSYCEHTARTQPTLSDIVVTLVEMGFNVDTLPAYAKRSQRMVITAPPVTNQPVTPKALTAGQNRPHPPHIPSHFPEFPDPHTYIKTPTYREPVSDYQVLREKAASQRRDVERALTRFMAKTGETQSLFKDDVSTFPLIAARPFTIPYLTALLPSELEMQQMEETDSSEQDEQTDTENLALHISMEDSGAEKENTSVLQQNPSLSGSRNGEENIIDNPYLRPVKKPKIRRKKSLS
UniProt Q7Z2E3: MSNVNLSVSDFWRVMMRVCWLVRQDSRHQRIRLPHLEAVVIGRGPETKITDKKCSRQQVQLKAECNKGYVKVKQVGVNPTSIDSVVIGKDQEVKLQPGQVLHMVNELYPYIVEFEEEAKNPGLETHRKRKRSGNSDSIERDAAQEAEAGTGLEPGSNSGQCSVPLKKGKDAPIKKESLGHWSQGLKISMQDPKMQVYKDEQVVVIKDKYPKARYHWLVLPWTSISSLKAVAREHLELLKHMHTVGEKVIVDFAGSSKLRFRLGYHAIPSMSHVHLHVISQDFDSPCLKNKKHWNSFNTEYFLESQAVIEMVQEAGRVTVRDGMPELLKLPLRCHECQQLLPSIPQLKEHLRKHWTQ
UniProt Q8IY67: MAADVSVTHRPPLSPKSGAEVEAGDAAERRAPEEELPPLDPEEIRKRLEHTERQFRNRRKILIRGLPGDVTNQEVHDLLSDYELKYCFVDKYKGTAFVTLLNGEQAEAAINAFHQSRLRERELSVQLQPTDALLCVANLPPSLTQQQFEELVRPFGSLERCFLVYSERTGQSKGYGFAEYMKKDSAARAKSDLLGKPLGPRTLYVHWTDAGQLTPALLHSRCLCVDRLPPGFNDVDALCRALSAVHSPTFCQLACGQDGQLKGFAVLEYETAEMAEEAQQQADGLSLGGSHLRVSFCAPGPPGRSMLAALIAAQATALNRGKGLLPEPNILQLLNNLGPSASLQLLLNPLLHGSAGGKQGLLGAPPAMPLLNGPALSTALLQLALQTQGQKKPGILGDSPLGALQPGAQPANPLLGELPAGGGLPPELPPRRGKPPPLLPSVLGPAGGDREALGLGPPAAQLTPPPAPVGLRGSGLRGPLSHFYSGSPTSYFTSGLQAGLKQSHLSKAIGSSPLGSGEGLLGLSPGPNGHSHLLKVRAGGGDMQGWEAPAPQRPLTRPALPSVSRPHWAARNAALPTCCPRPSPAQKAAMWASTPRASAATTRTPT
UniProt E9PIB1: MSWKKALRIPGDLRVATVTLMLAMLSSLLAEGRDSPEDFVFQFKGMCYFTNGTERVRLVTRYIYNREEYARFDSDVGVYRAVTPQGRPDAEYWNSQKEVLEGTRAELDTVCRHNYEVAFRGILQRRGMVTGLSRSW
UniProt P04632: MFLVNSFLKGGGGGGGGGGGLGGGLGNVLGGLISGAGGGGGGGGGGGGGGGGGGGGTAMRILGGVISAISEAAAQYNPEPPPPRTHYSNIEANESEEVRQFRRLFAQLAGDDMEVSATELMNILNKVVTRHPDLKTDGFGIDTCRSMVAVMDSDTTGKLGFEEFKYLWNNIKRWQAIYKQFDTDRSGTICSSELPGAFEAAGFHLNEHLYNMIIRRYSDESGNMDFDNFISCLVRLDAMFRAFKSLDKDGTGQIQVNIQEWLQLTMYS
UniProt Q9HB19: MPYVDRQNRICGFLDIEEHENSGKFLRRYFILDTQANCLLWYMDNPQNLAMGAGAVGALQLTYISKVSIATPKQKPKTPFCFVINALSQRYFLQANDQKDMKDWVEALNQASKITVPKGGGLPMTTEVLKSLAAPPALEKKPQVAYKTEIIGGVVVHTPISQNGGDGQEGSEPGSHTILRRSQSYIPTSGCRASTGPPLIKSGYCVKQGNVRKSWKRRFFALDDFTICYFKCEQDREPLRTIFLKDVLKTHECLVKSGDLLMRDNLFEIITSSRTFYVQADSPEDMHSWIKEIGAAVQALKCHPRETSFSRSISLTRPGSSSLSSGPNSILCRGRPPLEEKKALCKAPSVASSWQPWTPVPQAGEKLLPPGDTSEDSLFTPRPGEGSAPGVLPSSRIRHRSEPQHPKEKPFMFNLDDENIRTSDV
UniProt Q13454: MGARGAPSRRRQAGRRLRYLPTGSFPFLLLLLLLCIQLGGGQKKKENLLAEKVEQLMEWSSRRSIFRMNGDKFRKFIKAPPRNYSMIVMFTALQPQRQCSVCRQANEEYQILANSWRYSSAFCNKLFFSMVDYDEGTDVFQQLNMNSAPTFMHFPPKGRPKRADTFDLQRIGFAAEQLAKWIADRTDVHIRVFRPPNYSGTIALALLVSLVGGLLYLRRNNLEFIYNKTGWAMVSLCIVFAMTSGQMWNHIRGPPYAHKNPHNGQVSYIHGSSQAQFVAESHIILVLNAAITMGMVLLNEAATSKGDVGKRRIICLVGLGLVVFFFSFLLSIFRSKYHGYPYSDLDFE
UniProt Q15111: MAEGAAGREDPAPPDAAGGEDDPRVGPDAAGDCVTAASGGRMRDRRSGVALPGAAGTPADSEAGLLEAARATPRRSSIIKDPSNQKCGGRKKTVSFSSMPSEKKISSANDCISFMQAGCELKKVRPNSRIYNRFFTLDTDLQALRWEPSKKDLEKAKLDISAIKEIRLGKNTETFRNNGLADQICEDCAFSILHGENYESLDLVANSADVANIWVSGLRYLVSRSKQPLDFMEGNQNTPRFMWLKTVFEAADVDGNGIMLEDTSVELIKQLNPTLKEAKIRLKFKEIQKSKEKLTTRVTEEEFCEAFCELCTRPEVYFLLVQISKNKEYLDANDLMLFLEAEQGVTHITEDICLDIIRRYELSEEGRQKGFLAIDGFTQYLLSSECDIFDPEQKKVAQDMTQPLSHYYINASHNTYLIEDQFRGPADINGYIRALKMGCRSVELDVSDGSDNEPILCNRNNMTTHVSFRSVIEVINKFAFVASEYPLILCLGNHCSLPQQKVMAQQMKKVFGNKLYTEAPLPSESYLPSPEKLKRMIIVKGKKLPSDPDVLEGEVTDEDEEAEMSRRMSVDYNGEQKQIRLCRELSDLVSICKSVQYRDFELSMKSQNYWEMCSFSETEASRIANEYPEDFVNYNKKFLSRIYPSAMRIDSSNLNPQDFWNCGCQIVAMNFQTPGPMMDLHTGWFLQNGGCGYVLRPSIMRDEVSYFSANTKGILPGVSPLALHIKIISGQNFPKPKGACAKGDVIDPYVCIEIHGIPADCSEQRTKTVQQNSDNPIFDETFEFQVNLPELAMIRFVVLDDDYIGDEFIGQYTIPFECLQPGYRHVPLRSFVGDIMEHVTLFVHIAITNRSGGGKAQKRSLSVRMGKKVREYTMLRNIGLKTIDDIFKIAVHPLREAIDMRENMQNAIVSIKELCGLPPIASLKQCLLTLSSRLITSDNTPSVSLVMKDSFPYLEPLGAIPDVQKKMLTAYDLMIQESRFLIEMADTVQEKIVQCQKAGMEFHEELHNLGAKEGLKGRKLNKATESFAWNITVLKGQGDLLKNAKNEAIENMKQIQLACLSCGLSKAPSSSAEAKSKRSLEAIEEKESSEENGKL

Compound: Nc1ncnc2c1ncn2[C@@H]1O[C@H](COP(=O)(O)OP(=O)(O)NP(=O)(O)O)[C@@H](O)[C@H]1O [adenylyl imidodiphosphate]
Assay: NP40-soluble protein abundance relative to vehicle (solubility fold change) (ratio); higher = more soluble protein in presence of AMP-PNP
How it was run: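 Each value is a fold change relative to the detergent-processed vehicle, calculated per replicate from vsn-normalised intensities. Jurkat crude lysate received eight concentrations (0.1 to 10 mM) for 10 min at room temperature and 3 min at 37 °C, then was solubilised in 0.8% NP40 with benzonase (60 min, 4 °C). The ultracentrifuged supernatant was TMT-labelled and run by LC-MS/MS in three independent experiments.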

Target	NP40-soluble protein abundance (concentration: 0.1mM)	NP40-soluble protein abundance (concentration: 0.5mM)
A0A0A0MSJ9|Q15283 and related entries (UniProt Q15283)	1.014 ± 0.0093	0.994 ± 0.037
A0A0A0MRT6|B6VEX4 and related entries (UniProt Q8IZP0)	1.04 ± 0.013	1.04 ± 0.054
A0A0C4DH01|Q9NVU0 and related entries (UniProt Q9NVU0)	1.02 ± 0.042	1.01 ± 0.036
A0A0A0MTB8|Q8NI36 (UniProt Q8NI36)	1.01 ± 0.039	1.05 ± 0.046
A0A087WW65|O75027 and related entries (UniProt O75027)	1.02 ± 0.023	0.995 ± 0.066
A0A0C4DGB9|Q9H2U2 (UniProt Q9H2U2)	1 ± 0.013	1.014 ± 0.0053
A0A0J9YW33|Q13277 and related entries (UniProt Q13277)	0.997 ± 0.051	1.02 ± 0.082
A0A0D9SFL3|B0QYK0 and related entries (UniProt Q01844)	0.981 ± 0.011	1.01 ± 0.022
A0A0A0MQS2|F5H0Q6 (UniProt Q8N2M8)	0.977 ± 0.061	1.02 ± 0.065
A0A087WZX2|O95139 (UniProt O95139)	1.006 ± 0.0031	1.04 ± 0.083
A0A0J9YWD5|A0A0J9YYB5|B7ZM65 and related entries (UniProt Q9P1Y6)	0.997 ± 0.059	0.977 ± 0.018
A0A0A6YYH1|H0YLI7 and related entries (UniProt Q7Z6K5+P59780+H0YLI7)	0.969 ± 0.033	0.986 ± 0.032
A0A0D9SEY1|E7ESS2 and related entries (UniProt O95819)	1.02 ± 0.024	1.02 ± 0.044
A0A096LP10|Q9NP73-2|Q9NP73 (UniProt Q9NP73)	0.981 ± 0.023	1.02 ± 0.019
A0A140T9T7|Q03518 (UniProt Q03518)	1.03 ± 0.024	1.02 ± 0.044
A0A0C4DGV9|P49917 (UniProt P49917)	1.02 ± 0.0064	1.05 ± 0.072
A0A0A0MTL5|Q13309 and related entries (UniProt Q13309)	1.02 ± 0.011	0.971 ± 0.016
A0A087WZE9 (UniProt Q15651)	1.039 ± 0.0021	1.03 ± 0.056
A0A087X0W8|Q04206 and related entries (UniProt Q04206)	0.993 ± 0.024	0.99 ± 0.038

Two records drawn at random from the list so far, as already listed:
Target	NP40-soluble protein abundance (concentration: 0.1mM)	NP40-soluble protein abundance (concentration: 0.5mM)
A0A0A6YYH1|H0YLI7 and related entries (UniProt Q7Z6K5+P59780+H0YLI7)	0.969 ± 0.033	0.986 ± 0.032
A0A0J9YWD5|A0A0J9YYB5|B7ZM65 and related entries (UniProt Q9P1Y6)	0.997 ± 0.059	0.977 ± 0.018

Additional records.

Target	NP40-soluble protein abundance (concentration: 0.1mM)	NP40-soluble protein abundance (concentration: 0.5mM)
A0A0C4DGH2|P62070 and related entries (UniProt P62070)	1 ± 0.031	1.05 ± 0.069
A0A0A0MRM1|E9PL24 and related entries (UniProt Q5VU43)	1.04 ± 0.053	0.98 ± 0.029
A0A087WWS1|Q96FV9 (UniProt Q96FV9)	1.19 ± 0.051	1.25 ± 0.084
A0A0A0MRR3|Q7Z7C8 and related entries (UniProt Q7Z7C8)	0.9982 ± 0.0089	0.999 ± 0.036
A0A0A0MRR7|P09234 (UniProt P09234)	0.959 ± 0.028	1.02 ± 0.029
A0A0A0MRW7|Q7Z2E3 and related entries (UniProt Q7Z2E3)	0.986 ± 0.05	1.01 ± 0.028
A0A0A6YYI3|A0A0B4J1V8|Q9NQ55 and related entries (UniProt Q9NQ55)	1.022 ± 0.0067	0.9849 ± 0.0075
A0A087WXF8|A0A087WXU5|A0A087WYF0|A0A0D9SEW3|E7EPF0 and related entries (UniProt Q9NP64)	0.966 ± 0.032	0.989 ± 0.015
A0A087WXP7|Q9H2P9 and related entries (UniProt Q9H2P9)	0.961 ± 0.0038	0.995 ± 0.025
A0A087WZ13|E9PAU2 (UniProt Q8IY67)	1.07 ± 0.078	0.989 ± 0.024
A0A140T9B7|A0A140T9Z6|P01889 and related entries (UniProt P18463+P01889+P30486+P10321+P16188+Q30167+P30504+P30460+P30493+Q29865+Q6DU44+E9PIB1+Q8MH48+P30508+Q5SRN5+Q9TNN7+Q29940+O19617+Q29963+Q31610)	0.99 ± 0.015	1.002 ± 0.01
A0A0C4DGQ5|K7EIV0 and related entries (UniProt P04632)	0.983 ± 0.05	1.03 ± 0.023
A0A087WZ32|A0A087X038|A8K727 and related entries (UniProt Q9HB19)	0.983 ± 0.017	0.984 ± 0.044
A0A0A0MTC2|D6RA37 and related entries (UniProt Q13454)	1.01 ± 0.024	1 ± 0.065
A0A0A0MT40|H3BUD4 and related entries (UniProt Q15111)	0.96 ± 0.018	0.977 ± 0.044
A0A140T9L0|O15213 (UniProt O15213)	0.9692 ± 0.0026	1.01 ± 0.05
A0A0A0MTH3|Q13418 (UniProt Q13418)	1.007 ± 0.0092	0.984 ± 0.03
A0A0C4DGS5|B7ZC06 and related entries (UniProt Q08379)	1.01 ± 0.038	1.01 ± 0.028
